Article PMC9799981
No constants are given. Whether binding was seen depends on the method and setting. Binding seen in cells or lysates may run through a third protein. Some results given as binding are weak or reduced against the parent protein; the word gives no strength.

Chains of the proteins cited; added tags and fusions are not shown.
UniProt P09405: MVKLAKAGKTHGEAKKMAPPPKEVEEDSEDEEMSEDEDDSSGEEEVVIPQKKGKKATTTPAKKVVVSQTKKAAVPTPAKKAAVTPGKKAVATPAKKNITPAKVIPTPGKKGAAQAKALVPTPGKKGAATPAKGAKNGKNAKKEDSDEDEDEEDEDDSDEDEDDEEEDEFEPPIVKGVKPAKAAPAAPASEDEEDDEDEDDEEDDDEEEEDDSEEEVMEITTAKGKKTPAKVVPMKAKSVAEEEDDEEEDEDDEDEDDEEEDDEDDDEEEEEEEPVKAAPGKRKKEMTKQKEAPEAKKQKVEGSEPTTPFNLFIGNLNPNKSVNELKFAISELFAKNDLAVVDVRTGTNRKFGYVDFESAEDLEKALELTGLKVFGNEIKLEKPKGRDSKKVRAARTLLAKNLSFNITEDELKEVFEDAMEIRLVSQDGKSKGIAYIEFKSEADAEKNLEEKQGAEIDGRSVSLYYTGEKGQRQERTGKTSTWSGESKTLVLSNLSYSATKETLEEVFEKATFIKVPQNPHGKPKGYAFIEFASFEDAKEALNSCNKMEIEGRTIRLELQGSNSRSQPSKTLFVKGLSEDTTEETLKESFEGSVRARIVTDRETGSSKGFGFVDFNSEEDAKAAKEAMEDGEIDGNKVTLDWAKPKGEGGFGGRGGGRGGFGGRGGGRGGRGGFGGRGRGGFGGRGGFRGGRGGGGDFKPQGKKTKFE

Molecular target: nucleolin (mouse (endogenous in HL-1)) (UniProt P09405)
Assay: co-IP; immunoprecipitation from HL-1 cell nuclear extracts with anti-nucleolin antibody (IgG as negative control, anti-p54^nrb as positive); capillary Simple Western (Jess) with anti-p54^nrb antibody

binding: binds
B1: p54^nrb (endogenous mouse Nono) (protein, UniProt Q99K48 1-473)
chain: MQSNKAFNLEKQNHTPRKHHQHHHQQHHQQQQQQQQQQPPPPIPANGQQASSQNEGLTIDLKNFRKPGEKTFTQRSRLFVGNLPPDITEEEMRKLFEKYGKAGEVFIHKDKGFGFIRLETRTLAEIAKVELDNMPLRGKQLRVRFACHSASLTVRNLPQYVSNELLEEAFSVFGQVERAVVIVDDRGRPSGKGIVEFSGKPAARKALDRCSEGSFLLTTFPRPVTVEPMDQLDDEEGLPEKLVIKNQQFHKEREQPPRFAQPGSFEYEYAMRWKALIEMEKQQQDQVDRNIKEAREKLEMEMEAARHEHQVMLMRQDLMRRQEELRRMEELHNQEVQKRKQLELRQEEERRRREEEMRRQQEEMMRRQQEGFKGTFPDAREQEIRMGQMAMGGAMGINNRGAMPPAPVPPGTPAPPGPATMMPDGTLGLTPPTTERFGQAATMEGIGAIGGTPPAFNRPAPGAEFAPNKRRRY
